Measurements as given in PubChem BioAssay AID248 (DTP/NCI, 2004).
The list is a part of this screen's results and no random one: it gathers tests that were run many times, whatever their T/C, doses with no T/C, and many T/C values between a quarter and a half above the control. Other doses and runs of a compound stand elsewhere. T/C: endpoint of the treated group in % of that of the vehicle group. Some entries give survivors of the animals treated and no T/C: the source holds a T/C of zero for them, seemingly a mark for toxic or unscored doses. Some doses without a T/C left all or most animals alive at the check, yet need not have been tolerated: the source hardly ever lists a survival T/C far under the control, and the zero likely stands for such cases as well. Counts of survivors are from the toxicity check (mostly the fifth day) where no day follows; animals may have died later. Schedule codes are those of the source, taken here to give the interval after Q, in days (D) or hours (H), and the number of doses after X. Some schedule codes hold Z or #, which are not explained here. Some doses were run more than once; their values stand side by side, smallest first. Where survival is the endpoint, the PubChem record calls one and a half times the control and up active, and a quarter to a half above the control has no call in these data; cut-offs in other NCI protocols can differ. Some T/C values carry the count of animals alive at the toxicity check (mostly the fifth day); without a count, all were alive then.

Tested on: L1210 leukemia ip in BDF1 mice, survival T/C
Test: NCI In Vivo Anticancer Drug Screen. Data for tumor model L1210 Leukemia (intraperitoneal) in B6D2F1 (BDF1) mice
Details: T/C endpoint: mean survival time, higher T/C = longer survival
[1] = dose: 200.0 mg/kg/injection, schedule: Q04DX003 (sc), vehicle: olive oil, sesame oil, peanut oil
[2] = dose: 400.0 mg/kg/injection, schedule: Q04DX003 (ip), vehicle: Klucel (hydroxypropylcellulose) (HPC)
[3] = dose: 150.0 mg/kg/injection, schedule: Q01DX009 (ip), vehicle: Klucel (hydroxypropylcellulose) (HPC)
[4] = dose: 100.0 mg/kg/injection, schedule: Q01DX001 (ip), vehicle: saline
[5] = dose: 200.0 mg/kg/injection, schedule: Q04DX002 (ip), vehicle: Klucel (hydroxypropylcellulose) (HPC)
[6] = dose: 400.0 mg/kg/injection, schedule: Q01DX009 (ip), vehicle: Klucel (hydroxypropylcellulose) (HPC)
[7] = dose: 75.0 mg/kg/injection, schedule: Q01DX001 (ip), vehicle: saline
[8] = dose: 150.0 mg/kg/injection, schedule: Q01DX001 (ip), vehicle: saline
[9] = dose: 300.0 mg/kg/injection, schedule: Q01DX001 (ip), vehicle: saline
[10] = dose: 200.0 mg/kg/injection, schedule: Q01DX009 (ip), vehicle: Klucel (hydroxypropylcellulose) (HPC)
[11] = dose: 200.0 mg/kg/injection, schedule: Q04DX003 (ip), vehicle: saline with Tween-80
[12] = dose: 400.0 mg/kg/injection, schedule: Q04DX003 (ip), vehicle: saline with Tween-80

Nc1ccc2c(c1)OCO2
T/C [1]: 128 % of control
survivor count [1]: 2 of 6
survivor count (dose: 300.0 mg/kg/injection, schedule: Q04DX003 (sc), vehicle: olive oil, sesame oil, peanut oil): 0 of 6
survivor count (dose: 400.0 mg/kg/injection, schedule: Q01DX009 (sc), vehicle: olive oil, sesame oil, peanut oil): 1 of 6

ClC(Cl)C(Cl)(Cl)C(Cl)(Cl)Cl
survivor count [2]: 3 of 6

CCCC#C/C=C1/C=CC(=O)O1
survivor count (dose: 300.0 mg/kg/injection, schedule: Q01DX001 (ip), vehicle: carboxymethylcellulose (CMC)): 0 of 6

Sc1ccccc1.[Pb]
survivor count [3]: 6 of 6

CCOc1ccccc1/C=N\NC(=O)CCCC(=O)N/N=C/c1ccccc1OCC
survivor count (dose: 50.0 mg/kg/injection, schedule: Q01DX001 (ip), vehicle: saline): 4 of 4
survivor count [4]: 4 of 4
survivor count (dose: 200.0 mg/kg/injection, schedule: Q01DX001 (ip), vehicle: saline): 4 of 4

CC(=O)Nc1ccc[n+](Cc2ccc(S(=O)(=O)F)cc2)c1
survivor count (dose: 100.0 mg/kg/injection, schedule: Q04DX003 (ip), vehicle: Klucel (hydroxypropylcellulose) (HPC)): 1 of 6 and 3 of 6
survivor count (dose: 200.0 mg/kg/injection, schedule: Q04DX003 (ip), vehicle: Klucel (hydroxypropylcellulose) (HPC)): 0 of 6
survivor count [2]: 0 of 6

CC1CCC2C(C)C3C(CC4C5CC=C6CC(OC7OC(COC8OC(CO)C(OC9OC(C)C(O)C(O)C9O)C(O)C8O)C(O)C(O)C7O)CCC6(C)C5CCC43C)N2C1 (stereo not given)
survivor count [5]: 3 of 3

Cc1cccc(NC(=O)c2c(Br)c(Br)c(Br)c(Br)c2C(=O)O)c1C
survivor count [6]: 1 of 6

O=S(=O)(F)c1c(Cl)cccc1CBr
survivor count (dose: 100.0 mg/kg/injection, schedule: Q01DX009 (ip), vehicle: saline with Tween-80): 5 of 6
survivor count (dose: 200.0 mg/kg/injection, schedule: Q01DX009 (ip), vehicle: saline with Tween-80): 5 of 6
survivor count (dose: 400.0 mg/kg/injection, schedule: Q01DX009 (ip), vehicle: saline with Tween-80): 2 of 6

NC(=O)c1ccccc1OC(=O)Nc1ccc(F)cc1
survivor count (dose: 200.0 mg/kg/injection, schedule: Q01DX009 (ip), vehicle: carboxymethylcellulose (CMC)): 1 of 3 and 3 of 6
survivor count (dose: 200.0 mg/kg/injection, schedule: Q04DX002 (ip), vehicle: carboxymethylcellulose (CMC)): 3 of 3
survivor count (dose: 400.0 mg/kg/injection, schedule: Q04DX002 (ip), vehicle: carboxymethylcellulose (CMC)): 3 of 3

CCC(Br)(CC)C(=O)c1ccc(OCC(=O)O)c(Cl)c1Cl
survivor count (dose: 400.0 mg/kg/injection, schedule: Q01DX001 (ip), vehicle: saline): 0 of 4

CC(C)C(=O)[O][Sn]([CH3])([CH3])[CH3]
survivor count (dose: 1.56 mg/kg/injection, schedule: Q01DX009 (ip), vehicle: Klucel (hydroxypropylcellulose) (HPC)): 5 of 6
survivor count (dose: 3.12 mg/kg/injection, schedule: Q01DX009 (ip), vehicle: Klucel (hydroxypropylcellulose) (HPC)): 0 of 6
survivor count (dose: 3.12 mg/kg/injection, schedule: Q04DX002 (ip), vehicle: Klucel (hydroxypropylcellulose) (HPC)): 1 of 3
survivor count (dose: 6.25 mg/kg/injection, schedule: Q04DX002 (ip), vehicle: Klucel (hydroxypropylcellulose) (HPC)): 0 of 3
survivor count (dose: 12.5 mg/kg/injection, schedule: Q04DX002 (ip), vehicle: Klucel (hydroxypropylcellulose) (HPC)): 0 of 3
survivor count (dose: 100.0 mg/kg/injection, schedule: Q04DX002 (ip), vehicle: Klucel (hydroxypropylcellulose) (HPC)): 0 of 3
survivor count [5]: 0 of 3
survivor count (dose: 400.0 mg/kg/injection, schedule: Q04DX002 (ip), vehicle: Klucel (hydroxypropylcellulose) (HPC)): 0 of 3

NC(=O)c1ccc[n+](Cc2ccccc2)c1
survivor count (dose: 400.0 mg/kg/injection, schedule: Q01DX009 (ip), vehicle: saline): 0 of 6

Cc1ccc(COP(=O)(c2ccccc2)c2ccccc2)cc1
T/C (dose: 100.0 mg/kg/injection, schedule: Q01DX001 (ip), vehicle: Klucel (hydroxypropylcellulose) (HPC)): 133 % of control [5 of 6 alive]
survivor count (dose: 400.0 mg/kg/injection, schedule: Q01DX001 (ip), vehicle: Klucel (hydroxypropylcellulose) (HPC)): 6 of 6

O=C(NC1CC1(c1ccccc1)c1ccccc1)NC1CC1(c1ccccc1)c1ccccc1 (stereo not given)
survivor count (dose: 75.0 mg/kg/injection, schedule: Q01DX001 (ip), vehicle: other): 6 of 6
survivor count (dose: 150.0 mg/kg/injection, schedule: Q01DX001 (ip), vehicle: other): 6 of 6

Nc1cc(N)c(N)cc1N
survivor count [7]: 0 of 6
survivor count [8]: 0 of 6
survivor count [9]: 0 of 6

CC[CH2][Pb]([CH2]CC)([CH2]CC)[O]C(=O)CCl
survivor count (dose: 12.0 mg/kg/injection, schedule: Q01DX009 (ip), vehicle: Klucel (hydroxypropylcellulose) (HPC)): 6 of 6
survivor count (dose: 25.0 mg/kg/injection, schedule: Q01DX009 (ip), vehicle: Klucel (hydroxypropylcellulose) (HPC)): 0 of 6
survivor count (dose: 50.0 mg/kg/injection, schedule: Q01DX009 (ip), vehicle: Klucel (hydroxypropylcellulose) (HPC)): 0 of 6
survivor count (dose: 100.0 mg/kg/injection, schedule: Q01DX009 (ip), vehicle: Klucel (hydroxypropylcellulose) (HPC)): 0 of 6
survivor count [10]: 0 of 6
survivor count [6]: 0 of 6

CCC(CC)(Cc1ccccc1)C(=O)NC(=O)NOC
survivor count (dose: 50.0 mg/kg/injection, schedule: Q01DX Z (ip), vehicle: methylcellulose (MC)): 5 of 6

CSc1ccc(NC(=O)Sc2ccccc2C)cc1
survivor count [3]: 1 of 3
survivor count [10]: 5 of 6
survivor count [6]: 1 of 6 and 3 of 3

CC(=O)[O][Hg][c]1c(C)c(C)cc(C)c1C
survivor count (dose: 100.0 mg/kg/injection, schedule: Q04DX003 (ip), vehicle: saline with Tween-80): 3 of 6
survivor count [11]: 1 of 6
survivor count [12]: 0 of 6

CCC(C)(O)C(=O)O (stereo not given)
survivor count (dose: 400.0 mg/kg/injection, schedule: Q04DX002 (ip), vehicle: saline): 1 of 3

COc1cc2c(c(Cl)c1N)-c1ccccc1C2
survivor count (dose: 400.0 mg/kg/injection, schedule: Q01DX001 (ip), vehicle: carboxymethylcellulose (CMC)): 3 of 6
survivor count (dose: 600.0 mg/kg/injection, schedule: Q01DX001 (ip), vehicle: carboxymethylcellulose (CMC)): 4 of 6

COC(=O)COc1ccc(Cl)cc1C(=O)O
survivor count [12]: 5 of 6

Cc1ccc(C)c(C(=O)CCCCl)c1
survivor count [11]: 4 of 6
survivor count [12]: 0 of 6

CCC(C)n1c(C)cc(=O)n1C(C)CC (stereo not given)
survivor count [7]: 2 of 6
survivor count [8]: 0 of 6
survivor count [9]: 0 of 6

N#Cc1cn(-c2cccc(Cl)c2)c2ncccc12
survivor count (dose: 100.0 mg/kg/injection, schedule: Q01DX001 (ip), vehicle: saline with Tween-80): 3 of 3
survivor count [4]: 3 of 3
survivor count (dose: 200.0 mg/kg/injection, schedule: Q01DX001 (ip), vehicle: saline with Tween-80): 3 of 3
survivor count (dose: 400.0 mg/kg/injection, schedule: Q01DX001 (ip), vehicle: saline with Tween-80): 3 of 3

O=[N+]([O-])c1cc(Cl)c(Cl)cc1[N+](=O)[O-]
survivor count (dose: 300.0 mg/kg/injection, schedule: Q04DX002 (ip), vehicle: Klucel (hydroxypropylcellulose) (HPC)): 0 of 3
